# Reference: the supplement of paper PMC12819154, “High-throughput peptide-centric local stability assay extends protein–ligand identification to membrane proteins, tissues and bacteria” (Nature Structural & Molecular Biology, 2025)
# The chains behind the UniProt entries cited, without tags or fusion partners. Where a name states a change or a piece, a line headed by the entry shows the natural chain unless it says otherwise.
# UniProt P15923: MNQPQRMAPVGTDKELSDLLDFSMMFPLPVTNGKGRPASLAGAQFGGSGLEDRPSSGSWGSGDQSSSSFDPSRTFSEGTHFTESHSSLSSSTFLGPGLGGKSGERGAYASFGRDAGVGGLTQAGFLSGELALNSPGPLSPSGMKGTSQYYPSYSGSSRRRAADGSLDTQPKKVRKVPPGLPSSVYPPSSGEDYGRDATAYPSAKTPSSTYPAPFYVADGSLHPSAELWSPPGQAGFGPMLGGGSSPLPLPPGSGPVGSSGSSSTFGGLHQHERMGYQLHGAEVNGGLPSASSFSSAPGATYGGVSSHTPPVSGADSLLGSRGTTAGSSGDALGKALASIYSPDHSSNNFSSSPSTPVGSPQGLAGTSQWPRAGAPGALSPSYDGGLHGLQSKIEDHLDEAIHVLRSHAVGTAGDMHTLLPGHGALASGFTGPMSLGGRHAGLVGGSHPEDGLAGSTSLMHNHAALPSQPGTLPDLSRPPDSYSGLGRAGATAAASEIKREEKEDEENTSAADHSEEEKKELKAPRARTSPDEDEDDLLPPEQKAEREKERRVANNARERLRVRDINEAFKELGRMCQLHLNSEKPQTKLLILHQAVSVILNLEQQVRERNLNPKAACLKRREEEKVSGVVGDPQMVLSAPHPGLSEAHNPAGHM
# UniProt P20962: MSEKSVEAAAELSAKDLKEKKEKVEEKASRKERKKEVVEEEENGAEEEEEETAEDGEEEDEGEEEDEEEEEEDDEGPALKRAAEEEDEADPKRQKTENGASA
# UniProt P24864, whole entry: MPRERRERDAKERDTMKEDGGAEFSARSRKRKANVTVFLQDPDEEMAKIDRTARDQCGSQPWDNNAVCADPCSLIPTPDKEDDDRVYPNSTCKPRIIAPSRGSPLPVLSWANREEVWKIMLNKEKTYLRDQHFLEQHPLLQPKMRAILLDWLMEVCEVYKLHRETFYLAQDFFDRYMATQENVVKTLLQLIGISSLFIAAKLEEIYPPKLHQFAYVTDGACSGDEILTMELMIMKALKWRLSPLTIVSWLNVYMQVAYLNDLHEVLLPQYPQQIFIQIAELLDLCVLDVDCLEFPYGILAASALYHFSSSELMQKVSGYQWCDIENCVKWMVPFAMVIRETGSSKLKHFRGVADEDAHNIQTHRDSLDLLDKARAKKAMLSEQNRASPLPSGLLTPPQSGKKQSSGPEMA
# UniProt P23381: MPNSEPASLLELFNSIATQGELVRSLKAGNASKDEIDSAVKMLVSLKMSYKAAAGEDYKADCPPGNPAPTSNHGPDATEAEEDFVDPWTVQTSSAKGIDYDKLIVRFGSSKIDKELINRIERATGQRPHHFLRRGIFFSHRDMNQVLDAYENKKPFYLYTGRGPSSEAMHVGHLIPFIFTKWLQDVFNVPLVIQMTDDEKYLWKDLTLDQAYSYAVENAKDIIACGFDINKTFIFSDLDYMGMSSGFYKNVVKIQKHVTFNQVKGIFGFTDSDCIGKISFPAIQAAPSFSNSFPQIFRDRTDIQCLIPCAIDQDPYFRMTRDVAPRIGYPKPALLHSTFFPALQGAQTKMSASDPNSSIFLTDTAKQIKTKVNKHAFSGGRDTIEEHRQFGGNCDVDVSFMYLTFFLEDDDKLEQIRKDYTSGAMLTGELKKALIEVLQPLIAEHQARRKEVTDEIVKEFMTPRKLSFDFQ
# UniProt P17029: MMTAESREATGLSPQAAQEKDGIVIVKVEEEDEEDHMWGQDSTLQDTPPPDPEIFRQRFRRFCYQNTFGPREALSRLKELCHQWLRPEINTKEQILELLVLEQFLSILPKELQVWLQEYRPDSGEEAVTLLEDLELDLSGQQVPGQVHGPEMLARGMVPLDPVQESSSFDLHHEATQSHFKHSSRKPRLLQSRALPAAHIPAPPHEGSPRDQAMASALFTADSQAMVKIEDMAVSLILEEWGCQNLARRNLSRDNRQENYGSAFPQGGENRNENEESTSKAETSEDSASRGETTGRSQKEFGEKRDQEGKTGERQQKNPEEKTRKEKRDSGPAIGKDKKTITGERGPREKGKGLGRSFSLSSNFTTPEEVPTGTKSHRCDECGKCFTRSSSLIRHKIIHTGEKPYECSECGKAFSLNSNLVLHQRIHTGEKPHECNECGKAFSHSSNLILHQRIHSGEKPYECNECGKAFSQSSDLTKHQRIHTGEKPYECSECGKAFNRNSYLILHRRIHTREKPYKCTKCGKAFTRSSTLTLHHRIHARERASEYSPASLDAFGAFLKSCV
# UniProt P19404, whole entry: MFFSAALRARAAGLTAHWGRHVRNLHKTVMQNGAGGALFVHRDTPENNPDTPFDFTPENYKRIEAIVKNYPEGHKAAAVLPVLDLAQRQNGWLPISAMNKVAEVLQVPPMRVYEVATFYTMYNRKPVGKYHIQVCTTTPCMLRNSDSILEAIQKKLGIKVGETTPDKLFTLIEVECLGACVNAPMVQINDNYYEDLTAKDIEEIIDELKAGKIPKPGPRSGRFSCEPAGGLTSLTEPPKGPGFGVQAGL
# UniProt P15884: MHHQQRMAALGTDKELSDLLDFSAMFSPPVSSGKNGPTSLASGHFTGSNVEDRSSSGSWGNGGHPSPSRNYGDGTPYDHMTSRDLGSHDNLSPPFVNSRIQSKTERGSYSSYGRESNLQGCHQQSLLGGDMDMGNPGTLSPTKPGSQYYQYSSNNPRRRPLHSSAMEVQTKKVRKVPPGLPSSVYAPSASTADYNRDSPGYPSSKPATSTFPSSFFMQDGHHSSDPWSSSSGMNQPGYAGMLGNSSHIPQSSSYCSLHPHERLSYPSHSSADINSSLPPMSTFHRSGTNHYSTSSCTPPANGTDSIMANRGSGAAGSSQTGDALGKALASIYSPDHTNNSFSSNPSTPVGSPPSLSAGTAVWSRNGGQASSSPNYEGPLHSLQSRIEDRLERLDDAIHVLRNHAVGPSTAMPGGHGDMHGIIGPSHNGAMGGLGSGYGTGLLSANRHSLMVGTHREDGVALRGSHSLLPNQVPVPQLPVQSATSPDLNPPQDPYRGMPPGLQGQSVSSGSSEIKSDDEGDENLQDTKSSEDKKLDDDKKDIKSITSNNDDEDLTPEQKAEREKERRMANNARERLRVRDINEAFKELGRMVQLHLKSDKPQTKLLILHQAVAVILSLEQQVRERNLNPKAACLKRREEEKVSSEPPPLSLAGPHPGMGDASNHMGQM
# This is one part of the list. Most entries show no effect beyond the scatter of the controls.
# Compound: Cc1nc(Nc2ncc(C(=O)Nc3c(C)cccc3Cl)s2)cc(N2CCN(CCO)CC2)n1 [dasatinib]
# Assay: log2 fold change of tryptic peptide abundance, ligand vs vehicle (limited proteolysis) (log2 ratio); higher = more trypsin-susceptible (destabilized)
# Conditions: ligand concentration: 5 uM; sample: K562 cleared lysate
row,Target,log2 fold change
1,"TCF3 (peptide sequence: VRDINEAFKELGR, peptide start residue: 590) (UniProt P15923)",0.712
2,"PTMS (peptide sequence: KEKVEEK, peptide start residue: 21) (UniProt P20962)",0.191
3,"CCNE1 (peptide sequence: GVADEDAHNIQTHR, peptide start residue: 351) (UniProt P24864)",0.0366
4,"WARS (peptide sequence: IDKELINR, peptide start residue: 112) (UniProt P23381)",-0.303
5,"ZKSCAN1 (peptide sequence: HKIIHTGEKPYECSECGK, peptide start residue: 395) (UniProt P17029)",-1.09
6,"NEB (peptide sequence: AGVAASK, peptide start residue: 339) (UniProt P20929)",0.254
7,"NDUFV2 (peptide sequence: VAEVLQVPPMR, peptide start residue: 101) (UniProt P19404)",0.203
8,"TCF4 (peptide sequence: NGPTSLASGHFTGSNVEDR, peptide start residue: 35) (UniProt P15884)",0.193
